# Measured values published in article PMC7850899, “Nutrient transceptors physically interact with the yeast S6/protein kinase B homolog, Sch9, a TOR kinase target” (Biochemical Journal, 2021).
# No constants are given. Whether binding was seen depends on the method and setting. Binding seen in cells or lysates may run through a third protein. Some results given as binding are weak or reduced against the parent protein; the word gives no strength. Where a sequence is shown, tags or fusion partners need not be part of it.
# T1: Gap1 tagged with the N-terminal half of Citrine (GAP1-N-Citrine) (S. cerevisiae (endogenous gene, tagged)) (UniProt P19145)
# T1 sequence: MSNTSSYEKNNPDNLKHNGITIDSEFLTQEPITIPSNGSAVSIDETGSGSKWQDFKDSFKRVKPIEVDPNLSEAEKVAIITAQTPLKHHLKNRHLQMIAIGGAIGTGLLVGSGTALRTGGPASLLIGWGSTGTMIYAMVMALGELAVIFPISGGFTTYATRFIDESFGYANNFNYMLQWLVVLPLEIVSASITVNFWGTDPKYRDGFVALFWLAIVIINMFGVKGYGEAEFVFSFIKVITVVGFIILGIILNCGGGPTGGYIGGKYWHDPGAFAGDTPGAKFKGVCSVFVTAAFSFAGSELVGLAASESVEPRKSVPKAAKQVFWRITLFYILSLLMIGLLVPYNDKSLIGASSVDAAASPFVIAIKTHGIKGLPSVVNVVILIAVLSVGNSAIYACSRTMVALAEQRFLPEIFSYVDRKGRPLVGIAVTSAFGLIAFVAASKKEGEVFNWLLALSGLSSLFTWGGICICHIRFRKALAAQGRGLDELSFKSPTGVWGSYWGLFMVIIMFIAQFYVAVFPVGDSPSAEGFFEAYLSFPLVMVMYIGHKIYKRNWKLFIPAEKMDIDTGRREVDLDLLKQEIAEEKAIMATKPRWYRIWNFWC
# T2: Mep2 tagged with the N-terminal half of Citrine (MEP2-N-Citrine) (S. cerevisiae (endogenous gene, tagged)) (UniProt P41948)
# T2 sequence: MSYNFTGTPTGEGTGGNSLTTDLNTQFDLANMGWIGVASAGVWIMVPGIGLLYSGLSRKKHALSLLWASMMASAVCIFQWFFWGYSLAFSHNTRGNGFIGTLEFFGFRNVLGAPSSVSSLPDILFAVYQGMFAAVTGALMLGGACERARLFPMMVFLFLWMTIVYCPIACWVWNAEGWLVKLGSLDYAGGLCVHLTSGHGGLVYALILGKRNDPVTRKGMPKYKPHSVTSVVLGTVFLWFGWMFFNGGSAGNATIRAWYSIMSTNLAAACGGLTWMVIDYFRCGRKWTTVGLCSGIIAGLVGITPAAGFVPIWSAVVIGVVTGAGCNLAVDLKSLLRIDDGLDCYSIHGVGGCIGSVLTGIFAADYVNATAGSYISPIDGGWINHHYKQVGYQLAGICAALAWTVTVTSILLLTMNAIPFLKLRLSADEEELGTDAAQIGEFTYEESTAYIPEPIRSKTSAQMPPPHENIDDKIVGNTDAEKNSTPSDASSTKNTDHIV
# T3: Gnp1 tagged with the N-terminal half of Citrine (GNP1-N-Citrine) (S. cerevisiae (endogenous gene, tagged)) (UniProt P48813)
# T3 sequence: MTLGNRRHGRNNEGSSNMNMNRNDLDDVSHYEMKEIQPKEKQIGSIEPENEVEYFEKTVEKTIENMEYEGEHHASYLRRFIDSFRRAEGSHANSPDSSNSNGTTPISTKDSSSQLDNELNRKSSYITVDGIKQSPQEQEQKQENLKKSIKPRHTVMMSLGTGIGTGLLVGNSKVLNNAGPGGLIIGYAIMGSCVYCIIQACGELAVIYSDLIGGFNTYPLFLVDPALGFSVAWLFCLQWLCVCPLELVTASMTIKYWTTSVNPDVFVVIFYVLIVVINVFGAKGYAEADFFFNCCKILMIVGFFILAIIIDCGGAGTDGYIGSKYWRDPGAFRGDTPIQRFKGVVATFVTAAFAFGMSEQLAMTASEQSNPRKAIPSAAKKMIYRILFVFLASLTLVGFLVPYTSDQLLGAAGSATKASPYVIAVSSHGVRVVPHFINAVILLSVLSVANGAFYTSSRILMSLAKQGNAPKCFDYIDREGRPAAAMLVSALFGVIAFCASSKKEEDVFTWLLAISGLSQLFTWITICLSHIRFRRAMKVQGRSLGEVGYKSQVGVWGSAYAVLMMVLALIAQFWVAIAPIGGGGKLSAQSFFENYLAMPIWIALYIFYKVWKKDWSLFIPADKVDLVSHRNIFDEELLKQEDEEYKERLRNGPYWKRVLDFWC
# B1: Sch9 tagged with the C-terminal half of Citrine (SCH9-C-Citrine) (enzyme, UniProt P11792 1-824)
# chain: MMNFFTSKSSNQDTGFSSQHQHPNGQNNGNNNSSTAGNDNGYPCKLVSSGPCASSNNGALFTNFTLQTATPTTAISQDLYAMGTTGITSENALFQMKSMNNGISSVNNNNSNTPTIITTSQEETNAGNVHGDTGGNSLQNSEDDNFSSSSTTKCLLSSTSSLSINQREAAAAAYGPDTDIPRGKLEVTIIEARDLVTRSKDSQPYVVCTFESSEFISNGPESLGAINNNNNNNNNNQHNQNQHINNNNENTNPDAASQHHNNNSGWNGSQLPSIKEHLKKKPLYTHRSSSQLDQLNSCSSVTDPSKRSSNSSSGSSNGPKNDSSHPIWHHKTTFDVLGSHSELDISVYDAAHDHMFLGQVRLYPMIHNLAHASQHQWHSLKPRVIDEVVSGDILIKWTYKQTKKRHYGPQDFEVLRLLGKGTFGQVYQVKKKDTQRIYAMKVLSKKVIVKKNEIAHTIGERNILVTTASKSSPFIVGLKFSFQTPTDLYLVTDYMSGGELFWHLQKEGRFSEDRAKFYIAELVLALEHLHDNDIVYRDLKPENILLDANGNIALCDFGLSKADLKDRTNTFCGTTEYLAPELLLDETGYTKMVDFWSLGVLIFEMCCGWSPFFAENNQKMYQKIAFGKVKFPRDVLSQEGRSFVKGLLNRNPKHRLGAIDDGRELRAHPFFADIDWEALKQKKIPPPFKPHLVSETDTSNFDPEFTTASTSYMNKHQPMMTATPLSPAMQAKFAGFTFVDESAIDEHVNNNRKFLQNSYFMEPGSFIPGNPNLPPDEDVIDDDGDEDINDGFNQEKNMNNSHSQMDFDGDQHMDDEFVSGRFEI
# Tests used:
# Assay in all cases: split reporter; BiFC with split Citrine on genomically tagged proteins in living S. cerevisiae, confocal microscopy; cells starved for the transceptor's substrate (nitrogen 24 h, phosphate 72 h, sulfate 48 h); Gnp1 and Mup3 strains also in exponential growth
# [1] = biological target: T1, Gap1 tagged with the N-terminal half of Citrine (GAP1-N-Citrine) (S. cerevisiae (endogenous gene, tagged))
# [2] = biological target: T2, Mep2 tagged with the N-terminal half of Citrine (MEP2-N-Citrine) (S. cerevisiae (endogenous gene, tagged))
# [3] = biological target: T3, Gnp1 tagged with the N-terminal half of Citrine (GNP1-N-Citrine) (S. cerevisiae (endogenous gene, tagged))
binder,measurement,setting,value
B1,binding,[1],binds
same,binding,[2],binds
same,binding,[3],no binding
